# Reference: PMC12287301
# Sequences of proteins named here, by UniProt entry; tags and fusion partners are left off.
# UniProt Q93Z00: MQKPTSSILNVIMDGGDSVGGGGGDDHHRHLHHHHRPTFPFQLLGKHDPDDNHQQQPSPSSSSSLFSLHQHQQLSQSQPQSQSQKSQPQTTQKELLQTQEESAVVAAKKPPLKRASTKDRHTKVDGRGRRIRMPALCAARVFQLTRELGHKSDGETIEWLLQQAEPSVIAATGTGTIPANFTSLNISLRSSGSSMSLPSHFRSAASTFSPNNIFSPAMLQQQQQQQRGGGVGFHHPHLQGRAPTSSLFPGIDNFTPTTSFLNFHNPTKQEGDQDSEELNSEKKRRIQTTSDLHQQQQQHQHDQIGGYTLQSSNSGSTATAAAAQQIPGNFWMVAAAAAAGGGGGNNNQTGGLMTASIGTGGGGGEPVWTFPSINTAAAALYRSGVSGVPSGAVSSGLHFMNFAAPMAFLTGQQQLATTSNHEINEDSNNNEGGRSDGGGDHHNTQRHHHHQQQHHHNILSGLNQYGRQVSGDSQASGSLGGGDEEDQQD
# UniProt Q9FMX2: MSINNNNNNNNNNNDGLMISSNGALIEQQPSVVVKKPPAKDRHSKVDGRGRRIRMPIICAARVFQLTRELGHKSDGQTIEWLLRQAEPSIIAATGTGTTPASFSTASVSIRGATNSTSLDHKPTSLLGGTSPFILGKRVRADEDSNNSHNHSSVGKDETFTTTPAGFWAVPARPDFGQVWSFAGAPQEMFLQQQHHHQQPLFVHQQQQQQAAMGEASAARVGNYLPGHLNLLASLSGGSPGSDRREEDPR
# UniProt Q9FTA2: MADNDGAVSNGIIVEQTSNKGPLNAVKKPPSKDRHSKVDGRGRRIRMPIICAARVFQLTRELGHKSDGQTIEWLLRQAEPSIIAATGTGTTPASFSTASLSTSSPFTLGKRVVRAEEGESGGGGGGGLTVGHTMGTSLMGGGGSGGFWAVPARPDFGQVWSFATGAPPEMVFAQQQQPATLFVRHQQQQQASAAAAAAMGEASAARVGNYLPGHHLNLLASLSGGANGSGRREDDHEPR
# These are yes or no findings as the source states them, for the method shown. Some results given as binding are weak or reduced against the parent protein; the word gives no strength. Tags and fused reporters may be left off the sequences shown.
# Target: T1, BD-DSK2B (Arabidopsis thaliana) (UniProt Q9SII8)
# T1 sequence: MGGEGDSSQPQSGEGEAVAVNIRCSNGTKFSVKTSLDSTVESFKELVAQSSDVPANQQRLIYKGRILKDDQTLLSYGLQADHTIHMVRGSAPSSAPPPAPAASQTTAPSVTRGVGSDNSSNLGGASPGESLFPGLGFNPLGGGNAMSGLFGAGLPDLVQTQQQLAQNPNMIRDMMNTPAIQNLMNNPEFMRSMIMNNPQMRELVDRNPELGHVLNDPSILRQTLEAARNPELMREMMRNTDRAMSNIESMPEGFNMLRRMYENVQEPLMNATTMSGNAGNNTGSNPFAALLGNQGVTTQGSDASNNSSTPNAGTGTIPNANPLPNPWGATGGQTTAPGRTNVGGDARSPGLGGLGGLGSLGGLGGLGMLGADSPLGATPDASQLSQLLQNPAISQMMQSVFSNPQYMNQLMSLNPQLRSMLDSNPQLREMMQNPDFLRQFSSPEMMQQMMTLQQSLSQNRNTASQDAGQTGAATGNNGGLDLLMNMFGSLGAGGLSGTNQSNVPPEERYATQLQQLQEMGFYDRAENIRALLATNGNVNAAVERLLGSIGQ
# Test: two-hybrid; pair-wise test in Y2H-Gold; colonies from SD-L-W plates transferred onto SD-L-W-H and SD-L-W-A-H plates
row,binding,Substance
1,binds,AD-TCP14 (from UniProt Q93Z00 1-489)
2,binds,AD-TCP7 (from UniProt Q9FMX2 1-250)
3,binds,AD-TCP15 (from UniProt Q9C9L2 1-325)
4,binds,AD-TCP21 (from UniProt Q9FTA2 1-239)
